In publication PMC3723668:
No constants are given. Whether binding was seen depends on the method and setting. In cells and extracts the contact can be indirect. A result given as binding can be weak or reduced; the word gives no strength. For some of these results: Where a sequence is shown, tags or fusion partners need not be part of it.

Chains of the proteins cited; added tags and fusions are not shown. Lines headed by an entry give the natural chain unless they say otherwise; changes in a name come on top. Residues count along the entry.
UniProt Q15811: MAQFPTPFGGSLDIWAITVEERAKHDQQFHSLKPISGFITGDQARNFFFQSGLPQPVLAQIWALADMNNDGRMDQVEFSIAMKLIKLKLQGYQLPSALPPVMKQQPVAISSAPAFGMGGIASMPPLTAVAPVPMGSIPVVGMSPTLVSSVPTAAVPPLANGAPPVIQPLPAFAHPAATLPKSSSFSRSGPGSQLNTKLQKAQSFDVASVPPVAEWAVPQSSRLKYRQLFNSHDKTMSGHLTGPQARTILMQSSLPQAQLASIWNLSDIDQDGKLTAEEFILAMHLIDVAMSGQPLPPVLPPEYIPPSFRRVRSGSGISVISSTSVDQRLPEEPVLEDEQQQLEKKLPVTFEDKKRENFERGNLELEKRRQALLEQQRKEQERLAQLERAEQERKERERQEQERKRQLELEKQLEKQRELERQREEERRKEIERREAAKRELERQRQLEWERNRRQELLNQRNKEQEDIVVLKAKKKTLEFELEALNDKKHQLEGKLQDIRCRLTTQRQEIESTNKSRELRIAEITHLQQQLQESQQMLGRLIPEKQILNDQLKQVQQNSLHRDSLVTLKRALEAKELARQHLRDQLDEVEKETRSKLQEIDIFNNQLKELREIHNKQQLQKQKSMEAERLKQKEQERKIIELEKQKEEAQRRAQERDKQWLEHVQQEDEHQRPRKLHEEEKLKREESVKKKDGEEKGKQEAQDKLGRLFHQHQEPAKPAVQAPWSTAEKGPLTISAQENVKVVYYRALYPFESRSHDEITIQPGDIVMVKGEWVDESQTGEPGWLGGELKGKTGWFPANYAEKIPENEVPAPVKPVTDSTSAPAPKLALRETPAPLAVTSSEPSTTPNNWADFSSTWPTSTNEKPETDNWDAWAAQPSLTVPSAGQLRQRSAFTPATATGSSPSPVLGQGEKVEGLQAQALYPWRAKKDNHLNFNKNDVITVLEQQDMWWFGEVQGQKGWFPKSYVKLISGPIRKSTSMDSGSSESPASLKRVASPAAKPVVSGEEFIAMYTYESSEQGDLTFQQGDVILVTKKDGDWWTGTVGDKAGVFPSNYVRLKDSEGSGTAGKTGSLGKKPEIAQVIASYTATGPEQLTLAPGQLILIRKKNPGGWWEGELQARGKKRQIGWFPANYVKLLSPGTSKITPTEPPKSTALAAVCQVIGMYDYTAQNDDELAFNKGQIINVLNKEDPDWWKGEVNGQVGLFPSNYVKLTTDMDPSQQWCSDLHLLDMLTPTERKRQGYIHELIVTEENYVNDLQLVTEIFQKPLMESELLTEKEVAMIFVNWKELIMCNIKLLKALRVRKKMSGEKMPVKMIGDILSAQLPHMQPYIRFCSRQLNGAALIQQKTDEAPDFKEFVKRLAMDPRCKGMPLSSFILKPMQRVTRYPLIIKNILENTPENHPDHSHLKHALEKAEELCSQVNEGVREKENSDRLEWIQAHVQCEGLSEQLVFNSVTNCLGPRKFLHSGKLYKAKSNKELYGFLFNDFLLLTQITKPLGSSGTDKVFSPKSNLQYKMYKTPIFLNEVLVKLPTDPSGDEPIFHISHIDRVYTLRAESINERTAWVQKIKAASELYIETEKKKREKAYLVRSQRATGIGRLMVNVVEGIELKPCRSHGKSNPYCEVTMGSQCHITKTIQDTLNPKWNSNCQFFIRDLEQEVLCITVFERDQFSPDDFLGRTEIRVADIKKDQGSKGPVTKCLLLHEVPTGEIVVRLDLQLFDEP
UniProt O43426, residues 1003-1558: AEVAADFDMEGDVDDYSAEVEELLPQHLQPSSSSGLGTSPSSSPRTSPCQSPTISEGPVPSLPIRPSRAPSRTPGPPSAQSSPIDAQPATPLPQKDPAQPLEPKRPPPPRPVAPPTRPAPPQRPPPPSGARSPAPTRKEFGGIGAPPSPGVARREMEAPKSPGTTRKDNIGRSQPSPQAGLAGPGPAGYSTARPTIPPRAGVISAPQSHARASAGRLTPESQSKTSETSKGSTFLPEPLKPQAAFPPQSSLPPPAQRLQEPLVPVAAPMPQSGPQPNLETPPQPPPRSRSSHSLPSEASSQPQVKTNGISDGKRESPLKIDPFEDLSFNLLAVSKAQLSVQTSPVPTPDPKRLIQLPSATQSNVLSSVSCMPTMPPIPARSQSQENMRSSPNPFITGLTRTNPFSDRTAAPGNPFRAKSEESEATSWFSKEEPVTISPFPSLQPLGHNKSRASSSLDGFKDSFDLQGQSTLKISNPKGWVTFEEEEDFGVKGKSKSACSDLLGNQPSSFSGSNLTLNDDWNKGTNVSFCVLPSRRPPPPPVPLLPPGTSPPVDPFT
UniProt O00401, residues 22-459: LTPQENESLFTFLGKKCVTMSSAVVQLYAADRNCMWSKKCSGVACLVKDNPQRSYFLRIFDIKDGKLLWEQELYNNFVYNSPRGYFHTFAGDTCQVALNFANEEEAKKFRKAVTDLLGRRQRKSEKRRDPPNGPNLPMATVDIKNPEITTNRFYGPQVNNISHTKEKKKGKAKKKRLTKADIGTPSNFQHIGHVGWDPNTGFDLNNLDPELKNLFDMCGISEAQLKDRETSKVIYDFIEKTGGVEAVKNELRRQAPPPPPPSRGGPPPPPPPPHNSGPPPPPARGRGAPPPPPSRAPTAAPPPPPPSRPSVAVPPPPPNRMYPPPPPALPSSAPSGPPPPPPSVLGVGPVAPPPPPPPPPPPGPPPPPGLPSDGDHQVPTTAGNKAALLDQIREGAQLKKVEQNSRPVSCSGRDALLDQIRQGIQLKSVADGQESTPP

Columns and labels:
[1] = target: GST-fused SH3A domain of ITSN1 (human) (UniProt Q15811); experiment: pull-down; GST-SH3 domains (5-20 ug) on glutathione beads incubated 2 h at 4°C with lysate of HEK293 cells expressing the tagged protein; 20 mM Tris-HCl pH 7.5, 0.5% NP40, 150 mM NaCl, 10% glycerol, 1 mM Na3VO4; immunoblot with antibodies against tags; only the target purified
[2] = target: GST-fused SH3C domain of ITSN1 (human) (UniProt Q15811); experiment: as above
[3] = target: GST-fused SH3E domain of ITSN1 (human) (UniProt Q15811); experiment: as above
[4] = target: GST-fused SH3(A-E) domains of ITSN1 (human) (UniProt Q15811); experiment: as above
[5] = target: GST-fused SH3A domain of ITSN1 (human) (UniProt Q15811); experiment: pull-down; GST-SH3 domains (5-20 ug) on glutathione beads incubated 2 h at 4°C with lysate of mouse brain; 20 mM Tris-HCl pH 7.5, 0.5% NP40, 150 mM NaCl, 10% glycerol, 1 mM Na3VO4; immunoblot with antibodies against dynamin 1 or SOS1; only the target purified
[6] = target: GST-fused SH3C domain of ITSN1 (human) (UniProt Q15811); experiment: as above
[7] = target: GST-fused SH3E domain of ITSN1 (human) (UniProt Q15811); experiment: as above
[8] = target: GST-fused SH3D domain of ITSN1 (human) (UniProt Q15811); experiment: pull-down; GST-SH3 domains (5-20 ug) on glutathione beads incubated 2 h at 4°C with lysate of HEK293 cells expressing the tagged protein; 20 mM Tris-HCl pH 7.5, 0.5% NP40, 150 mM NaCl, 10% glycerol, 1 mM Na3VO4; immunoblot with antibodies against tags; only the target purified

Row | binding [1] | binding [2] | binding [3] | binding [4] | Molecule | other results
1 | binds | binds | binds |  | Omni-synaptojanin 1 proline-rich domain (residues 1003-1558) (from UniProt O43426 1003-1558) (domain or fragment) | 
2 |  |  |  | binds | Omni-Reps1 (full-length) (protein, UniProt Q96D71 1-796) MEGLTLSDAEQKYYSDLFSYCDIESTKKVVVNGRVLELFRAAQLPNDVVLQIMELCGATRLGYFGRSQFYIALKLVAVAQSGFPLRVESINTVKDLPLPRFVASKNEQESRHAASYSSDSENQGSYSGVIPPPPGRGQVKKGSVSHDTVQPRTSADAQEPASPVVSPQQSPPTSPHTWRKHSRHPSGGNSERPLAGPGPFWSPFGEAQSGSSAGDAVWSGHSPPPPQENWVSFADTPPTSTLLTMHPASVQDQTTVRTVASATTAIEIRRQSSSYDDPWKITDEQRQYYVNQFKTIQPDLNGFIPGSAAKEFFTKSKLPILELSHIWELSDFDKDGALTLDEFCAAFHLVVARKNGYDLPEKLPESLMPKLIDLEDSADVGDQPGEVGYSGSPAEAPPSKSPSMPSLNQTWPELNQSSEQWETFSERSSSSQTLTQFDSNIAPADPDTAIVHPVPIRMTPSKIHMQEMELKRTGSDHTNPTSPLLVKPSDLLEENKINSSVKFASGNTVADGYSSSDSFTSDPEQIGSNVTRQRSHSGTSPDNTAPPPPPPRPQPSHSRSSSLDMNRTFTVTTGQQQAGVVAHPPAVPPRPQPSQAPGPAVHRPVDADGLITHTSTSPQQIPEQPNFADFSQFEVFAASNVNDEQDDEAEKHPEVLPAEKASDPASSLRVAKTDSKTEEKTAASAPANVSKGTTPLAPPPKPVRRRLKSEDELRPEVDEHTQKTGVLAAVLASQPSIPRSVGKDKKAIQASIRRNKETNTVLARLNSELQQQLKDVLEERISLEVQLEQLRPFSHL | 
3 | binds | binds | binds |  | Omni-Sema6A cytoplasmic domain (residues 650-1021) (domain or fragment, UniProt Q9H2E6 650-1021) LLAIAVILAFVMGAVFSGITVYCVCDHRRKDVAVVQRKEKELTHSRRGSMSSVTKLSGLFGDTQSKDPKPEAILTPLMHNGKLATPGNTAKMLIKADQHHLDLTALPTPESTPTLQQKRKPSRGSREWERNQNLINACTKDMPPMGSPVIPTDLPLRASPSHIPSVVVLPITQQGYQHEYVDQPKMSEVAQMALEDQAATLEYKTIKEHLSSKSPNHGVNLVENLDSLPPKVPQREASLGPPGASLSQTGLSKRLEMHHSSSYGVDYKRSYPTNSLTRSHQATTLKRNNTNSSNSSHLSRNQSFGRGDNPPPAPQRVDSIQVHSSQPSGQAVTVSRQPSLNAYNSLTRSGLKRTPSLKPDVPPKPSFAPLST | 

The remaining lines, values behind:

Row | Molecule | binding [1] | binding [2] | binding [3] | binding [4] | other results
4 | Omni-N-WASP proline-rich domain (residues 22-459) (from UniProt O00401 22-459) (domain or fragment) |  |  |  | binds | 
5 | SOS1, endogenous in mouse brain (from UniProt Q62245 1-1319) |  |  |  |  | binding [5]: binds; binding [6]: binds; binding [7]: binds
6 | Flag-Numb (protein, UniProt P49757 1-651) MNKLRQSFRRKKDVYVPEASRPHQWQTDEEGVRTGKCSFPVKYLGHVEVDESRGMHICEDAVKRLKAERKFFKGFFGKTGKKAVKAVLWVSADGLRVVDEKTKDLIVDQTIEKVSFCAPDRNFDRAFSYICRDGTTRRWICHCFMAVKDTGERLSHAVGCAFAACLERKQKREKECGVTATFDASRTTFTREGSFRVTTATEQAEREEIMKQMQDAKKAETDKIVVGSSVAPGNTAPSPSSPTSPTSDATTSLEMNNPHAIPRRHAPIEQLARQGSFRGFPALSQKMSPFKRQLSLRINELPSTMQRKTDFPIKNAVPEVEGEAESISSLCSQITNAFSTPEDPFSSAPMTKPVTVVAPQSPTFQANGTDSAFHVLAKPAHTALAPVAMPVRETNPWAHAPDAANKEIAATCSGTEWGQSSGAASPGLFQAGHRRTPSEADRWLEEVSKSVRAQQPQASAAPLQPVLQPPPPTAISQPASPFQGNAFLTSQPVPVGVVPALQPAFVPAQSYPVANGMPYPAPNVPVVGITPSQMVANVFGTAGHPQAAHPHQSPSLVRQQTFPHYEASSATTSPFFKPPAQHLNGSAAFNGVDDGRLASADRHTEVPTGTCPVDPFEAQWAALENKSKQRTNPSPTNPFSSDLQKTFEIEL |  |  |  |  | binding [8]: binds
7 | Flag-SPRY2 (protein, UniProt O43597 1-315) MEARAQSGNGSQPLLQTPRDGGRQRGEPDPRDALTQQVHVLSLDQIRAIRNTNEYTEGPTVVPRPGLKPAPRPSTQHKHERLHGLPEHRQPPRLQHSQVHSSARAPLSRSISTVSSGSRSSTRTSTSSSSSEQRLLGSSFSSGPVADGIIRVQPKSELKPGELKPLSKEDLGLHAYRCEDCGKCKCKECTYPRPLPSDWICDKQCLCSAQNVIDYGTCVCCVKGLFYHCSNDDEDNCADNPCSCSQSHCCTRWSAMGVMSLFLPCLWCYLPAKGCLKLCQGCYDRVNRPGCRCKNSNTVCCKVPTVPPRNFEKPT | binds | binds | binds |  | 
8 | dynamin 1, endogenous in mouse brain (protein, UniProt P39053 1-867) MGNRGMEDLIPLVNRLQDAFSAIGQNADLDLPQIAVVGGQSAGKSSVLENFVGRDFLPRGSGIVTRRPLVLQLVNSTTEYAEFLHCKGKKFTDFEEVRLEIEAETDRVTGTNKGISPVPINLRVYSPHVLNLTLVDLPGMTKVPVGDQPPDIEFQIRDMLMQFVTKENCLILAVSPANSDLANSDALKIAKEVDPQGQRTIGVITKLDLMDEGTDARDVLENKLLPLRRGYIGVVNRSQKDIDGKKDITAALAAERKFFLSHPSYRHLADRMGTPYLQKVLNQQLTNHIRDTLPGLRNKLQSQLLSIEKEVDEYKNFRPDDPARKTKALLQMVQQFAVDFEKRIEGSGDQIDTYELSGGARINRIFHERFPFELVKMEFDEKELRREISYAIKNIHGIRTGLFTPDMAFETIVKKQVKKIREPCLKCVDMVISELISTVRQCTKKLQQYPRLREEMERIVTTHIREREGRTKEQVMLLIDIELAYMNTNHEDFIGFANAQQRSNQMNKKKTSGNQDEILVIRKGWLTINNIGIMKGGSKEYWFVLTAENLSWYKDDEEKEKKYMLSVDNLKLRDVEKGFMSSKHIFALFNTEQRNVYKDYRQLELACETQEEVDSWKASFLRAGVYPERVGDKEKASETEENGSDSFMHSMDPQLERQVETIRNLVDSYMAIVNKTVRDLMPKTIMHLMINNTKEFIFSELLANLYSCGDQNTLMEESAEQAQRRDEMLRMYHALKEALSIIGDINTTTVSTPMPPPVDDSWLQVQSVPAGRRSPTSSPTPQRRAPAVPPARPGSRGPAPGPPPAGSALGGAPPVPSRPGASPDPFGPPPQVPSRPNRAPPGVPSLGAWRLNSPQGKHENRAGKARL |  |  |  |  | binding [5]: binds; binding [6]: binds; binding [7]: binds
9 | Myc-POB1 (protein, UniProt Q8NFH8 1-660) MEAAAAAAAAAAAAAAAGGGCGSGPPPLLLSEGEQQCYSELFARCAGAAGGGPGSGPPEAARVAPGTATAAAGPVADLFRASQLPAETLHQITELCGAKRVGYFGPTQFYIALKLIAAAQSGLPVRIESIKCELPLPRFMMSKNDGEIRFGNPAELHGTKVQIPYLTTEKNSFKRMDDEDKQQETQSPTMSPLASPPSSPPHYQRVPLSHGYSKLRSSAEQMHPAPYEARQPLVQPEGSSSGGPGTKPLRHQASLIRSFSVERELQDNSSYPDEPWRITEEQREYYVNQFRSLQPDPSSFISGSVAKNFFTKSKLSIPELSYIWELSDADCDGALTLPEFCAAFHLIVARKNGYPLPEGLPPTLQPEYLQAAFPKPKWDCQLFDSYSESLPANQQPRDLNRMEKTSVKDMADLPVPNQDVTSDDKQALKSTINEALPKDVSEDPATPKDSNSLKARPRSRSYSSTSIEEAMKRGEDPPTPPPRPQKTHSRASSLDLNKVFQPSVPATKSGLLPPPPALPPRPCPSQSEQVSEAELLPQLSRAPSQAAESSPAKKDVLYSQPPSKPIRRKFRPENQATENQEPSTAASGPASAATMKPHPTVQKQSSKQKKAIQTAIRKNKEANAVLARLNSELQQQLKEVHQERIALENQLEQLRPVTVL |  |  |  | binds | 
